We go through 17 compounds from PubChem BioAssay AID2685 (National Center for Advancing Translational Sciences (NCATS), 2010).

The list shows a part of the results. Shown are side measurements of this screen, not its main read-out; they come without a call. Compounds called inactive in the main read-out are mostly missing here. The note in brackets gives the kind of curve behind each potency; many fits are weak.

A short description of the assay: qHTS Assay for Lipid Storage Modulators in Drosophila S3 Cells.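 On cell number change: cells counted by Cell Tracker Red CMTPX staining in the red channel.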 The settings on record: BODIPY lipid droplet fluorescence, 18-24 h; for cell number change: measured here: cell count max response, cells fed with added oleic acid. Put shortly: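 Drosophila S3 cells loaded with oleic acid (400 uM, as added) and compounds at several concentrations; lipid droplets imaged by 488-nm laser-scanning cytometry, 500–530 nm intensity and object ratio to cell channel. Percent activity normalized to 20 uM Triacsin C.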
A general note: qHTS replaces the single test concentration by a dilution series.

The mark [1] stands for this setting: measured here: cell number channel AC50, cells fed with added oleic acid.
Where [2] appears, read: measured here: lipid fluorescence (Fed channel) AC50, cells fed with added oleic acid.

The AC50 is the concentration at which the activity in the assay is half-maximal. Read a high AC50 as weaker potency.

Turning to `O=C(CS(=O)(=O)Cc1ccccc1)NCc1ccc2c(c1)OCO2`, the AC50 reads like this: under setting [1], 0.164 µM [rising, full curve]; under setting [2], 5.17 µM [rising, single point].
In the case of `Cc1ccccc1NC(=O)Cc1nc(COC(=O)Cc2c(F)cccc2Cl)cs1`, the cell number change was -4.51%.
`CC(C)(Oc1ccc(Cl)cc1)C(=O)OCn1nnc2ccccc2c1=O`: the AC50 under setting [1] was 0.146 µM [rising, full curve, poor fit].
As to `O=C(Nc1ccc(C(=O)O)c(O)c1)c1ccccc1`, the cell number change was 7.38%. Further, the AC50 under setting [2] is 6.51 µM [falling, single point].
Consider `Cc1ccc(-c2nc(SC(C)C(=O)N3CCCC3)n[nH]2)cc1` (stereo unspecified), for which the cell number change stood at 35.5%.
Regarding `CSc1nc(-c2ccccc2)cn1-c1ccc(NC(C)=O)cc1`, the cell number change was 29.1%. Besides, the AC50 under setting [2] is 0.259 µM [rising, full curve].
On to `CCn1cc(/C=C(\NC(=O)c2ccccc2)C(=O)NCCCN2CCOCC2)c2ccccc21`, for which, under setting [2], the AC50 was 18.4 µM [rising, single point].
As to `CN(C)c1ccc(/C=[N+](\[O-])C2SC(=S)N(C)C2(C)C)cc1` (stereo unspecified), the cell number change came out at 42.3%. Also, the AC50 under setting [1] was 0.00517 µM [rising, full curve, poor fit].
In the case of `COc1ccc(-c2nnc(SCC(=O)NCCC(C)C)nc2-c2ccc(OC)c(OC)c2)cc1OC`, the cell number change was 70.4%. Also, under setting [2], the AC50 is 5.8 µM [rising, full curve].
Regarding `CC(C)C(NC(=O)c1ccco1)C(=O)NC1CCCCCC1` (stereo unspecified), the cell number change was determined as 11.7%. Under setting [2], the AC50 is 11.6 µM [falling, single point].
As to `O=C(Nc1c(Cl)cccc1Cl)c1cc(-c2ccco2)on1`, the cell number change was -10.3%. The AC50 under setting [1] was 1.3 µM [rising, partial curve]. Also, under setting [2], the AC50 was 29.1 µM [rising, single point].
On to `COc1ccc(CNC(=S)Nc2cc(C)cc(C)c2)cc1`, for which the cell number change is -3.18%.
On to `CC(=O)C1=C(O)CCC1=NCCc1ccccc1`, for which the cell number change came out at 25.9%. In addition, the AC50 under setting [2] is 6.51 µM [falling, single point].
Consider `Cc1ccc(C(=O)O/N=C/C2=C(Cl)c3ccccc3CC2)cc1`, for which the cell number change is -49.1%. In addition, under setting [1], the AC50 is 4.11 µM [falling, full curve]. Besides, under setting [2], the AC50 is 4.11 µM [falling, full curve].
`CCc1cccc(C)c1NC(=O)Cn1nc(C)n2cccc2c1=O`: the cell number change worked out at 11.9%.
As to `Cc1ccc(N2CCN(CC(O)COc3ccc([N+](=O)[O-])cc3)CC2)cc1` (stereo unspecified), the cell number change was -24.2%. In addition, under setting [1], the AC50 is 1.84 µM [rising, single point]. The AC50 under setting [2] was 2.59 µM [rising, single point].
Take `COc1cc(C(=O)Nc2nc(-c3ccc(Cl)cc3)c(C)s2)ccc1OCC(=O)Nc1ccc(F)cc1`: the cell number change was -23.1%. Further, the AC50 under setting [2] was 2.91 µM [falling, full curve, poor fit].
